Measured values: PubChem BioAssay AID540276 (National Center for Advancing Translational Sciences (NCATS), 2011)
The whole screen tested about 300,000 compounds, of which about 5,400 (1.8%) were called active. This list was built around the results that the source calls inconclusive (neither active nor inactive); the mix of calls is not that of the screen. The call rests on the fitted dose curve; tested in HEK293 cells. Where the call is inconclusive, the potency comes from a doubtful curve fit.

Assay: qHTS for inhibitors of binding or entry into cells for Marburg Virus
Settings: Marburg virus pseudotyped entry inhibition, cell reporter; activity change, negative = inhibition: at 37.8 µM (top of the series) unless noted
On the % scale 0 is the no-effect control and ±100 the full control effect; potency means the concentration at half of the fitted maximal effect.

Structure (SMILES) | Potency | activity change, negative = inhibition
Cc1cc(NC(=O)C2C3C(=O)N(CC4CCCO4)C(C(=O)NC(C)(C)C)C34C=CC2(C)O4)no1 (stereo not drawn) | inconclusive: 22.4 µM [inhibitor, single point] | –
O=C(Nc1c2c(nc3ccccc13)CCCC2)c1ccccc1Cl | inconclusive: 35.5 µM [inhibitor, partial curve, poor fit] | –
CCc1cccc2c(C(=S)N3CCOCC3)c[nH]c12 | inconclusive: 6.31 µM [inhibitor, single point] | –
O=C(NC(=S)N1CCN(c2ccc([N+](=O)[O-])cc2)CC1)c1ccccc1Cl | inconclusive: 11.2 µM [inhibitor, single point] | –
CCC(C)C(NC(=O)/C(=C\c1ccccc1)NC(=O)c1ccc(OC)cc1)C(=O)O (stereo not drawn) | – | inactive: -8.91% [at 46.1 µM]
COc1ccc2c(-c3cc4ccc(OCc5ccc(F)cc5)cc4oc3=O)cc(=O)oc2c1 | inconclusive: 2.82 µM [inhibitor, partial curve, poor fit] | –
COc1ccc(NC(=O)C2CCCN2C(=O)NC2CCCCC2)cc1 (stereo not drawn) | inconclusive: 3.55 µM [inhibitor, single point] | –
O=C(N/N=C/c1ccc(N2CCCCC2)o1)c1ccccc1[N+](=O)[O-] | inconclusive: 1.26 µM [inhibitor, single point] | –
COc1cc(C(=O)Nc2cc(C)c(O)c(-c3nc4ccccc4s3)c2)cc(OC)c1OC | – | inactive: 13% [at 46.1 µM]
O=C(NCCc1ccc(Cl)cc1)c1cccs1 | inconclusive: 7.94 µM [activator, partial curve, poor fit] | –
Cc1ccc(N2CC(=O)Nc3c(sc4nc(C)cc(C)c34)C2=O)cc1 | inconclusive: 10 µM [activator, partial curve, poor fit] | –
CC1CN(c2nnc(NC(=O)c3ccccc3)s2)CC(C)O1 (stereo not drawn) | inconclusive: 20.6 µM [activator, single point] | –
Cc1cc(C(=O)CN2C(=O)NC3(CCCCC3C)C2=O)c(C)n1Cc1cccs1 (stereo not drawn) | inconclusive: 6.31 µM [activator, partial curve, poor fit] | –
CCOC(=O)c1c(NC(=O)CSc2nnc(C)s2)sc2c1CCCCC2 | inconclusive: 35.5 µM [inhibitor, single point] | –
Cc1ccc2nc(SCC(=O)OCc3ccccc3)nc(=O)n2c1 | – | inactive: -7.15%
CN(Cc1ccccc1)C(=O)Cn1c(=O)oc2cc(S(=O)(=O)N3CCCC3)ccc21 | – | inactive: -0.0247%
COc1ccc(OC)c(-n2c(-c3cc(-c4ccccc4)n[nH]3)n[nH]c2=S)c1 | inconclusive: 10 µM [activator, partial curve, poor fit] | –
Cc1ccc(Nc2ncnc(N)n2)cc1 | – | inactive: 22.8% [at 46.1 µM]
COc1ccccc1OCCC(=O)OCC(=O)Nc1ccc2c(c1)OCCO2 | – | inactive: -2.74% [at 46.1 µM]
CC(C)c1ccc(/C=C/C(=O)Nc2nc3ccc([N+](=O)[O-])cc3s2)cc1 | – | inactive: 3.3%
CCC(C)(C)n1nnnc1C(c1ccc(Cl)cc1)N1CCN(C)CC1 (stereo not drawn) | inconclusive: 35.5 µM [inhibitor, single point] | –
Cn1nc(C(F)(F)F)c(-c2ccc(F)cc2)c1NC(=O)Nc1ccc(F)cc1 | inconclusive: 35.5 µM [inhibitor, single point] | –
O=c1[nH]c(=O)n(C2CCCCCC2)c(O)c1C=NCc1ccc(F)cc1 | – | inactive: -10.4%

Structure (SMILES) | Potency | activity change, negative = inhibition
O=C1C[C@H]2[C@H](CO)[C@@H](OC(=O)c3ccc(-c4ccccc4)cc3)C[C@H]2O1 | inconclusive: 2.51 µM [activator, full curve, poor fit] | –
CCOc1ccccc1CN1CCN(C/C=C/c2ccc(OC)cc2)CC1CCO (stereo not drawn) | inconclusive: 25.1 µM [inhibitor, single point] | –
COc1ccc(NC(=O)Cn2c(=O)n(-c3ccc(OC)cc3)c(=O)c3sc4ccccc4c32)cc1 | – | inactive: 2.28% [at 46.1 µM]
CCOC(=O)c1c(/N=C/c2ccc(C)cc2O)sc2c1CCC2 | – | inactive: 15.9%
CCOc1ccc(NC(=O)CCNC(=O)c2ccco2)cc1 | – | inactive: 12.6%
OCC1OC(n2cnc3c(NCc4ccccc4O)ncnc32)C(O)C1O (stereo not drawn) | inconclusive: 1.58 µM [inhibitor, full curve] | –
Cc1nc2ccccc2c(=O)n1-c1cccc(O)c1 | inconclusive: 35.5 µM [activator, partial curve, poor fit] | –
COC(=O)c1cc(-c2ccc(OC)cc2F)nc2nc(SC)[nH]c(=O)c12 | inconclusive: 22.4 µM [inhibitor, partial curve, poor fit] | –
CCCCn1c(=O)c(Cc2ccccc2)c(O)c2ccccc21 | inconclusive: 0.316 µM [inhibitor, partial curve, poor fit] | –
COc1ccc(C(=O)Nc2ccccc2C(=O)N/N=C/c2cccc3ccccc23)cc1 | inconclusive: 29.1 µM [inhibitor, single point] | –
CC(C)Oc1ccc(C(=O)NC(=S)Nc2ccc(CN3CCOCC3)cc2)cc1 | inconclusive: 8.91 µM [activator, partial curve, poor fit] | –
O=C(NC1C=CS(=O)(=O)C1)c1ccccc1 (stereo not drawn) | – | inactive: 14.2% [at 46.1 µM]
O=C(OCCCN1CCCCC1)c1ccc(O)cc1 | inconclusive: 35.5 µM [activator, single point] | –
COc1ccc(/C(C)=N/N=C(N)N)c(O)c1 | inconclusive: 3.16 µM [inhibitor, full curve, poor fit] | –
CN(C)c1ccc(C(CNC(=O)c2ccc(C#N)cc2)c2c[nH]c3ccccc23)cc1 (stereo not drawn) | inconclusive: 35.5 µM [inhibitor, single point] | –
Cn1c(CNC(=O)C(Cc2ccccc2)NC(=O)c2ccccc2)cc(=O)n(C)c1=O (stereo not drawn) | inconclusive: 35.5 µM [activator, partial curve, poor fit] | –
COc1cc2c3c(c1)C1(C(=O)N3C(C)(C)C=C2C)C(C#N)=C(N)Oc2cc(O)ccc21 (stereo not drawn) | – | inactive: 0.516%
COc1ccc(O)c(/C=N/NC(=S)Nc2cccc(S(=O)(=O)N(C)C)c2)c1 | active: 3.66 µM | –
COc1cc(C(=O)Nc2cc(Cl)ccc2-n2cncn2)ccc1OC(F)F | inconclusive: 12.6 µM [inhibitor, single point] | –
CN(Cc1nc2ccccc2n1C)S(C)(=O)=O | – | inactive: 2.09%
COC(=O)c1ccc[n+](CC(=O)c2ccc(Br)cc2)c1 | inconclusive: 11.6 µM [activator, single point] | –
O=S(=O)(NCCc1ccc2c(c1)OCCO2)c1cccs1 | inconclusive: 6.51 µM [activator, full curve, poor fit] | –
O=C(Nc1cccc(-c2nnc(-c3ccccc3)o2)c1)C1CCCCC1 | – | inactive: 15.5%

Part of the list above, as tab-separated lines.
Structure (SMILES)	Potency	activity change, negative = inhibition
CC(C)c1ccc(/C=C/C(=O)Nc2nc3ccc([N+](=O)[O-])cc3s2)cc1	–	inactive: 3.3%
CCC(C)(C)n1nnnc1C(c1ccc(Cl)cc1)N1CCN(C)CC1 (stereo not drawn)	inconclusive: 35.5 µM [inhibitor, single point]	–
Cn1nc(C(F)(F)F)c(-c2ccc(F)cc2)c1NC(=O)Nc1ccc(F)cc1	inconclusive: 35.5 µM [inhibitor, single point]	–
O=c1[nH]c(=O)n(C2CCCCCC2)c(O)c1C=NCc1ccc(F)cc1	–	inactive: -10.4%
O=C1C[C@H]2[C@H](CO)[C@@H](OC(=O)c3ccc(-c4ccccc4)cc3)C[C@H]2O1	inconclusive: 2.51 µM [activator, full curve, poor fit]	–

Next part.

Structure (SMILES) | Potency | activity change, negative = inhibition
Cc1ccccc1CN1CCCNC1=O | – | inactive: 3.14%
COc1ccc2c(c1OC)CN(C)CCc1cc3c(cc1C(=O)C2)OCO3 | inconclusive: 6.31 µM [inhibitor, single point] | –
Cc1cc(Cl)ccc1OCC(=O)NCC(c1cccs1)N1CCOCC1 (stereo not drawn) | inconclusive: 22.4 µM [inhibitor, single point] | –
O=C(Nc1nc(-c2ccccn2)cs1)C1CC(=O)N(c2ccc3c(c2)OCCO3)C1 (stereo not drawn) | inconclusive: 22.4 µM [inhibitor, single point] | –
COc1ccc(Cl)cc1NC(=O)CSc1nnc(COc2ccccc2)n1N | inconclusive: 28.2 µM [inhibitor, single point] | –
COc1ccc(-c2csc3nc(-c4ccccc4F)oc(=O)c23)cc1 | inconclusive: 3.55 µM [inhibitor, single point] | –
CC(=O)c1ccc(Oc2ncnc(N)c2[N+](=O)[O-])cc1 | inconclusive: 8.91 µM [inhibitor, partial curve, poor fit] | –
O=C(Nc1nc(-c2ccccn2)cs1)c1cc2ccccc2o1 | inconclusive: 2.24 µM [inhibitor, partial curve, poor fit] | –
CCC(C)[C@H](NC(=O)NCc1cccs1)C(=O)O (stereo partly drawn) | – | inactive: 14.2%
O=C(O)c1ccccc1C(=O)Nc1ccc(-c2csc(-c3ccccc3)n2)cc1 | inconclusive: 1.84 µM [activator, full curve] | –
O=C(Nc1cccnc1)c1ccc(N2CCCC2)c([N+](=O)[O-])c1 | – | inactive: 22.1% [at 46.1 µM]
Nc1c(N(CCC2=CCCCC2)C(=O)Cc2ccc(F)cc2)c(=O)[nH]c(=O)n1Cc1ccccc1 | – | inactive: -17.6%
CC(=O)c1ccc(NC(=O)c2sc(-n3nc(C)c(Cc4ccc5c(c4)OCO5)c3C)nc2C)cc1 | – | inactive: 10.5% [at 46.1 µM]
CCCCCC(C)NC(=S)NC(=O)c1cc(S(=O)(=O)N2CCOCC2)ccc1C (stereo not drawn) | inconclusive: 35.5 µM [inhibitor, partial curve, poor fit] | –
CN(C)CCC1(C2=CCCC2)CC/C(=C/c2ccc(Cl)cc2)C1=O (stereo not drawn) | inconclusive: 14.1 µM [inhibitor, partial curve, poor fit] | –
c1ccc(Oc2ccc(-c3ccnc4nc(N5CCOCC5)nn34)cc2)cc1 | inconclusive: 11.2 µM [inhibitor, partial curve, poor fit] | –
Cc1ccnc(NC(=O)CCC2CCCCC2)c1 | – | inactive: -11.8%
COc1ccc(C(=O)N2CCN(C(C)=O)CC2)cc1S(=O)(=O)N1CCOCC1 | inconclusive: 0.891 µM [activator, full curve, poor fit] | –
O=S1(=O)CCC(NC(=S)N2CCCCC2)C1 (stereo not drawn) | inconclusive: 1.58 µM [inhibitor, full curve] | –
CC1CCN(c2ccc(C(=O)OCC(=O)NCCN3C(=O)CSC3=O)cc2[N+](=O)[O-])CC1 | inconclusive: 1.41 µM [activator, partial curve, poor fit] | –
Cc1nn(CC(=O)O)c2ccccc12 | inconclusive: 29.1 µM [activator, single point] | –
CCCCN(c1ccccc1)S(=O)(=O)c1cccc(C(=O)Nc2c(C)n(C)n(-c3ccccc3)c2=O)c1 | inconclusive: 11.2 µM [inhibitor, single point] | –
